# Assay results from the supplement of paper PMC3334620.
# The full ranking holds about 33,000 sequences; the median of “E-score (-0.5 to 0.5)” is about -0.015, and the highest 2% start at about 0.3. The list shows a part of the results.
# Target: T1, Abf1 (UniProt P14164)
# T1 sequence: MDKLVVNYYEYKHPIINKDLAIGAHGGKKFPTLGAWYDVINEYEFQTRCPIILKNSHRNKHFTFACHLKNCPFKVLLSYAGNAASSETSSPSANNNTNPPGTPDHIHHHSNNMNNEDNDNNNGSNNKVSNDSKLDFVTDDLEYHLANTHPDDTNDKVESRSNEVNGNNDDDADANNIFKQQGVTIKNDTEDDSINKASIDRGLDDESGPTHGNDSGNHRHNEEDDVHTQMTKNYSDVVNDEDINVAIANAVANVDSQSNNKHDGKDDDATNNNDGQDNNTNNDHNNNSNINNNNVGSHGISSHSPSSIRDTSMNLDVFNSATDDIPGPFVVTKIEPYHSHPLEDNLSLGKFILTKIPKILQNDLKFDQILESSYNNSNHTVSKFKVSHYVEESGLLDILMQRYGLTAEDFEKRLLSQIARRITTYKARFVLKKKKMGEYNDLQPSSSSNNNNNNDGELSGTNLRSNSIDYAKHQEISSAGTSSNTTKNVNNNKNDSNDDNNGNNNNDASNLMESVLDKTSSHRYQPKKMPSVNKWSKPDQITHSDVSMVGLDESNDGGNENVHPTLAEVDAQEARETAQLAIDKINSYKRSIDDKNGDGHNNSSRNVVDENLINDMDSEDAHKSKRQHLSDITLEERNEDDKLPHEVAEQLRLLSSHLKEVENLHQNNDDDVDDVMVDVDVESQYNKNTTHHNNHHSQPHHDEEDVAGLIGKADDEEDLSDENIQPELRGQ
# Assay: PBM E-score (8-mer binding enrichment) (E-score (-0.5 to 0.5)); higher = stronger / more preferred TF binding
# Details: protein concentration: 200 nM; construct: GST-full length
# Outline: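 PURExpress in vitro transcription/translation supplied GST-tagged yeast transcription factors, either full-length or DNA-binding domain. Applied at about 100-200 nM to universal all-10-mer Agilent arrays double-stranded by primer extension, the bound protein was detected with fluorescent anti-GST. E-scores, modified Wilcoxon-Mann-Whitney statistics, were given by the Universal PBM Analysis Suite to ungapped eight-base words pooled with their reverse complements after masliner normalisation.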
row,Sequence,PBM E-score
1,ACGTTAGG,-0.00203
2,TAAAGAAA,0.138
3,AGCTACGC,0.105
4,ACGCCTCG,-0.0798
5,CTTAGCTA,-0.165
6,CTTCTCTC,-0.053
7,GGTAGTCA,-0.138
8,ATCACCAG,0.203
9,ACTGAAAA,-0.00371
10,CGCGGATA,0.157
11,GCGTTGTA,0.0739
12,CTAGCCAC,-0.0552
13,CCATGAAA,-0.00202
14,ACGGATCT,-0.073
15,GTATTCGA,-0.0809
16,GTGGGCGA,0.0385
17,ACAGACCA,-0.166
18,ACTAGTAT,0.109
19,CAGAGGAC,-0.0805
20,ATAGAACC,-0.137
21,CCGGAGAC,-0.00839
22,CTGCACAG,0.0656
23,CACACCAG,-0.142
24,AATCCCCA,-0.126
25,ACGACGCA,0.262

row,Sequence,PBM E-score
1,AGTTTTGC,0.109
2,CGGACTAA,0.2
3,GGGAAGAC,-0.227
4,TAGCTAAA,0.202
5,AGGGATGG,-0.154
6,GCGAAGCA,0.0387
7,AGTAGCCC,-0.131
8,CGCAGTTC,0.0394
9,CCACTAAG,-0.0507
10,AGTGGCAT,-0.0451
11,CTTCGGGC,-0.221
12,GGTACTAC,0.155
13,AGGACTGC,-0.279
14,AGACTCAG,-0.235
15,CACCGATG,0.0485
16,CCCGATTA,0.118
17,TATTGGGA,0.0245
18,GGAGGACC,-0.182
19,AGATTTTA,0.0126
20,GTATCCAA,-0.0689
21,GAATTCAC,-0.0247
22,ATTGACAG,-0.0128
23,GAAAGTCC,-0.161
24,AAATTAGA,0.154
25,CTCGTTGA,0.0588

row,Sequence,PBM E-score
1,TCCAATCA,0.00606
2,CACCGGAA,0.0954
3,CCATGTGA,-0.0692
4,ACCTTTGA,-0.0803
5,CAGCCGCA,-0.103
6,GCAATCGA,-0.00403
7,CGGGTAAC,-0.0444
8,ACCAGCGA,-0.0642
9,ATTACGCG,-0.00871
10,ACGTCATG,0.197
11,ATCCTCAA,0.14
12,AATCGAGC,-0.0995
13,CTGACGGA,0.241
14,ACACCAAG,-0.226
15,CCTTCACA,-0.137
16,CACGGCGA,0.305
17,CCAAGGGA,-0.209
18,AACTTCTG,3e-05
19,CCGCGTAC,0.0414
20,ACCGACGC,-0.2
21,CCCACACC,-0.0605
22,ACTACTCC,0.0593
23,GATGTATA,0.0117
24,TCCTGGAA,-0.117
25,AGGTGACC,0.14

row,Sequence,PBM E-score
1,AGCAGCAT,-0.151
2,CGAGCTGA,0.0324
3,GGTGTTCA,-0.188
4,ACTTTTGC,-0.0352
5,GTACCTAC,0.0214
6,CTCACCGA,-0.0103
7,ACCTGTTA,-0.148
8,AAGTTGCT,0.0439
9,AGACTAGC,-0.208
10,CTAGCGTA,-0.253
11,ACCCGCCG,0.154
12,GCTAAGGA,-0.174
13,CGCACTGA,-0.0751
14,ACAGGACA,0.163
15,TACGAATA,0.25
16,CGACAGCG,-0.193
17,GGACACTA,-0.0313
18,AGTATCGA,0.0629
19,ACACCCAA,0.051
20,AGGCATTG,-0.101
21,CGAAGGCA,-0.148
22,ATGTTGGC,-0.0826
23,AAGTGACC,0.252
24,CCAACTTA,0.158
25,GAAGCTGC,0.0193

row,Sequence,PBM E-score
1,ATTTCAGG,0.0205
2,GCCATTGA,0.074
3,CTCTTGGC,-0.151
4,CGCGTCAC,0.111
5,CCTTTGAC,-0.13
6,AATGTGAG,0.0378
7,GTTTAAAA,0.209
8,ATGTCACA,0.282
9,TGATGGAA,-0.0572
10,AAGACTAA,-0.00454
11,ATCTCGCA,0.136
12,TCAGCCAA,-0.028
13,AGAATGCG,0.117
14,AGCAGCCG,-0.0296
15,GACCTTCA,0.142
16,ACAGCTCG,-0.142
17,CGACTGCC,-0.259
18,ATTAAACG,0.23
19,CTAGTAAA,0.0571
20,ACAGGCGA,-0.0629
21,ATCCCAAC,-0.0279
22,CAAAACTG,0.0851
23,AAAGTCGT,-0.0129
24,AAGCGGCT,-0.101
25,ACGAAAAC,0.316

# An excerpt of these results, with bars between the fields.
row | Sequence | PBM E-score
18 | AGTATCGA | 0.0629
19 | ACACCCAA | 0.051
20 | AGGCATTG | -0.101
21 | CGAAGGCA | -0.148
22 | ATGTTGGC | -0.0826

# Following part

row,Sequence,PBM E-score
1,CTGGCTTC,-0.141
2,CTATCGTC,0.252
3,ATCATAGA,0.204
4,TAGCGCTA,-0.0709
5,ATCGGTAC,0.0552
6,AAGGACGT,0.178
7,TATGGGGA,-0.00725
8,ACATGCCG,0.0733
9,ATCTTTTG,0.101
10,ACTACACG,0.163
11,AGTTCTTC,-0.0427
12,CGCTTCAA,0.162
13,CCTTTCGA,0.0566
14,GCGCTTTA,0.0924
15,ACGAGAGC,-0.0578
16,AGGGCTAA,0.083
17,ACTAGCTA,-0.225
18,TCGGACCA,-0.073
19,CTATGACC,0.017
20,AACTATCG,0.025
21,GCGAGATA,0.116
22,CACGGCTA,0.307
23,CTGGCCTA,-0.202
24,GAGCAACA,0.0205
25,GACTAGGA,-0.0405

row,Sequence,PBM E-score
1,AGTTACTA,0.148
2,CGATCAAG,-0.0178
3,ACTGGGAG,-0.146
4,GCGATAAA,0.241
5,CGGCGAGC,-0.0245
6,GCAAATTA,0.0305
7,CCACTGGC,-0.107
8,AACGCGCT,-0.0715
9,TGACGGAA,0.288
10,AGAGCCCT,-0.171
11,AGGCACTG,-0.0913
12,CGAAGACA,-0.003
13,CCTGCAAG,-0.342
14,TACTCTAA,-0.00515
15,AGGGGTCA,-0.181
16,CATTCGTA,0.308
17,ACATCATG,0.24
18,GCTGACAC,0.0512
19,AAGTTGCC,-0.0116
20,AAGGCTCA,-0.0222
21,ATGGCCCG,-0.202
22,AATAGTAA,0.192
23,CAGGCGAA,-0.0244
24,AGCGGGGG,-0.383
25,GACAGGGA,-0.07

# A stretch from the list above, for reference:
row,Sequence,PBM E-score
25,ACGACGCA,0.262
1,AGTTTTGC,0.109
2,CGGACTAA,0.2

# (list continues)

row,Sequence,PBM E-score
1,CGAGTTAG,0.148
2,CCCGTAGG,0.0176
3,AAAGCGTT,-0.0287
4,ATAGCCGG,0.0178
5,CCTCCATA,0.0292
6,GGCACCCA,-0.152
7,CTACACAA,-0.0251
8,CGCTCCCA,-0.124
9,CCTAACTA,0.0645
10,ATGGAAAC,-0.0866
11,CACTGGGG,-0.251
12,CAGACAAA,0.041
13,ATACCCGG,-0.139
14,GCATAACC,0.0527
15,CAAGAGTC,-0.142
16,ACATTCTG,-0.0819
17,GTTTGTAA,-0.052
18,CCCAGATC,-0.159
19,CACAATGC,-0.12
20,AACCGCCC,-0.201
21,GCGTCGTA,0.418
22,CCTGCAGA,-0.0442
23,AGCGGGAC,-0.131
24,GATTACGA,0.24
25,GCAGTGGA,0.00291

row,Sequence,PBM E-score
1,ACACTTAG,-0.0129
2,ATGAATCG,0.219
3,GAAAGCAC,0.141
4,AAGGCTAA,0.0747
5,GATGGAGC,-0.078
6,GACTGCCC,-0.279
7,CACTTCTC,0.0401
8,ATTGCGAC,0.0678
9,CCTTACTC,-0.192
10,GCGGTGGA,0.00972
11,AGGCGGAT,-0.0114
12,AGCTTATC,0.0498
13,CGAGTGCA,0.0614
14,CTCCCGAG,-0.356
15,CGGCTGAG,-0.0713
16,GCATGTAC,0.0456
17,CTCGTAAG,0.132
18,CATAGCAA,-0.142
19,GGTGAGCA,-0.0811
